The supplement of paper PMC10735217
Counter-ions that a name gives are not always drawn. The list shows a part of the results. This data set is noisy: repeats of one test often differ as much as different tests do.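 The human kidney-derived cells carry a stably integrated construct of eight TEAD-binding elements driving luciferase, read by luminescence in a drug-repurposing library screen. A compound counts as a hit when its signal is more than five robust Z scores above the plate mean.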

Tested on: HEK293A TEAD-LUC reporter
Test: TEAD-luciferase reporter activity (YAP activation), robust Z score vs plate; higher = stronger YAP/TEAD activation
Details: 24 h

Row | SMILES | TEAD-luciferase reporter activity (compound concentration: 200 nM) | TEAD-luciferase reporter activity (compound concentration: 2 uM) | TEAD-luciferase reporter activity (compound concentration: 10 uM)
1 | O=C(OCCN1CCCCCC1)C(c1ccsc1)C1CCCCC1 (stereo unspecified) [cetiedil] | inactive: -0.372 | inactive: 1.68 | inactive: 2.64
2 | CC(C)(Oc1ccc(Cl)cc1)C(=O)OCc1cccc(CO)n1 | inactive: -0.088 | inactive: -0.761 | inactive: 1.68
3 | O=C(O)CC1Sc2ccccc2N(Cc2nc3c(F)c(F)cc(F)c3s2)C1=O (stereo unspecified) | inactive: -0.836 | inactive: -1.17 | inactive: 4.66
4 | C[N+]1(CCC(O)(c2ccccc2)c2cccs2)CCOCC1 (stereo unspecified) [tiemonium metilsulfate] | inactive: -1.18 | inactive: 0.959 | inactive: 0.711
5 | N=C(N)N/N=C(/c1ccccc1)c1cc(Cl)ccc1N | inactive: -0.559 | inactive: -1.67 | inactive: 1.96
6 | CC(C)[C@@H]1NC(=O)[C@H](CCCCN)NC(=O)[C@@H](Cc2c[nH]c3ccccc23)NC(=O)[C@H](Cc2ccc(O)cc2)NC(=O)[C@@H](NC(=O)[C@H](N)Cc2ccc3ccccc3c2)CSSC[C@@H](C(=O)N[C@H](C(N)=O)[C@@H](C)O)NC1=O | inactive: -2.62 | inactive: -0.435 | inactive: -1.15
7 | CCOC(=O)CCCCCCCCC(C)c1ccc(I)cc1 (stereo unspecified) | inactive: -0.916 | inactive: 0.389 | inactive: 0.319
8 | Cc1sc(C)c2c1SCc1cnn(C)c1-2 | inactive: 1.04 | inactive: -2.15 | inactive: -0.211
9 | Clc1cccc(Cl)c1NC1=NCCN1 [Clonidine] | – | inactive: 0.814 | –
10 | Clc1cccc(Cl)c1NC1=NCCN1 [Clonidine hydrochloride] | inactive: 3.41 | – | inactive: 0.117
11 | COC(=O)c1nc2cc(Cl)c3cccnc3c2o1 | inactive: -1.39 | inactive: -1.4 | inactive: 2.86
12 | CCOc1ccc(C[C@@H](NC(=O)c2ccccc2)C(=O)N[C@@H](Cc2ccccc2)C(=O)NCc2ccc(CN)cc2)cc1 | inactive: 0.39 | inactive: -1.37 | inactive: 1.27
13 | CS(=O)(=O)c1cc(F)cc2c3c(n(Cc4ccc(Cl)cc4)c12)[C@@H](CC(=O)O)CC3 [laropiprant] | inactive: -0.914 | inactive: -0.42 | inactive: -0.145
14 | O=C(Nc1ccc(Br)c2ccccc12)C1CCN(C(=O)Cn2c(=O)sc3ccc(Cl)cc32)CC1 | inactive: 0.526 | inactive: -1.53 | inactive: 0.49
15 | O=C(CN(CCC1CCCC1)C(=O)N1CCC[C@H]1C(=O)Nc1ccc2c(c1)OCO2)NO | inactive: -0.184 | inactive: -1 | inactive: 1.61
16 | CCc1c(C(=O)c2cc(C)cc(C)c2)[nH]c(=O)[nH]c1=O | inactive: -1.43 | inactive: -0.525 | inactive: -1.58
17 | CC[C@@H](C)[C@@H]1NC(=O)[C@H]([C@@H](C)CC)NC(=O)[C@@H](Cc2c[nH]c3ccccc23)NC(=O)CCSCC[C@@H](C(=O)N(C)[C@H](CO)CCCN)NC(=O)[C@H](CC(N)=O)NC1=O | inactive: 1.65 | inactive: -0.607 | inactive: -0.657
18 | CC(C)[N+](C)(C)CC(O)COc1cccc2ccccc12 (stereo unspecified) | inactive: 3.32 | inactive: -0.282 | inactive: 0.412
19 | CC(C(=O)O)c1cccc2c(-c3ccccc3)coc12 (stereo unspecified) [furaprofen] | inactive: 0.63 | inactive: -0.315 | inactive: -1.65
20 | OC(CN1CCC(Cc2ccc(F)cc2)CC1)c1ccc(Cl)cc1 (stereo unspecified) [Eliprodil] | inactive: -1.35 | inactive: -1.66 | inactive: 2.9

Row | SMILES | TEAD-luciferase reporter activity (compound concentration: 200 nM) | TEAD-luciferase reporter activity (compound concentration: 2 uM) | TEAD-luciferase reporter activity (compound concentration: 10 uM)
21 | CCC(CC)Nc1c2c(nc3c(-c4ccc(OC)cc4Cl)c(C)nn13)CCC2 | inactive: -0.953 | inactive: -0.757 | inactive: -1.38
22 | COC(CN1CCN(c2ccccc2)CC1)c1ccc(C)nc1 (stereo unspecified) | inactive: -0.502 | inactive: 1.53 | inactive: 2.21
23 | CCC(OC(N)=O)C1CCCCC1 (stereo unspecified) [1-cyclohexylpropyl carbamate] | inactive: 0.974 | inactive: -0.496 | inactive: 0.936
24 | O=C(O)CCc1ccc(-c2ccc(Cl)cc2)o1 | inactive: 3.58 | inactive: -0.829 | inactive: -1.34
25 | CC(C)C[C@H]1CC[C@H](C(=O)COS(=O)(=O)c2ccccc2)CC1 | inactive: -1.77 | inactive: 0.297 | inactive: 0.443
26 | COc1ccc2c(c1)c(CN1CCN(C)CC1)cn2S(=O)(=O)c1ccccc1Br | inactive: -2.35 | inactive: -0.0944 | inactive: -1.64
27 | O=C1C(O)=C(CCCCCCCCC2CCCCC2)C(=O)c2ccccc21 | inactive: -1.65 | inactive: -1.12 | inactive: -0.247
28 | O=C(c1ccncc1)N1CCC(n2c(=O)[nH]c3ccccc32)CC1 | inactive: -0.498 | – | inactive: 0.42
29 | CN(C)CCN1C(=O)c2ccccc2N(C)c2ccccc21 | inactive: -0.749 | inactive: 0.537 | inactive: 0.00514
30 | Cc1ccccc1OCC(O)CO (stereo unspecified) | inactive: -1.08 | inactive: -1.52 | inactive: -1.53
31 | C[C@H](N)C(=O)N[C@@H](C)C(=O)NC1[C@H]2CN(c3nc4c(cc3F)c(=O)c(C(=O)O)cn4-c3ccc(F)cc3F)C[C@@H]12 (stereo partly specified) [alatrofloxacin mesilate] | inactive: -0.204 | inactive: -0.102 | inactive: -0.958
32 | CCN(CC)CCOC(=O)C1(c2ccccc2)CCCC1 | – | inactive: -1.14 | –
33 | CCN(CC)CCOC(=O)C1(c2ccccc2)CCCC1 [Caramifenio] | inactive: -1.3 | – | inactive: 0.0573
34 | N=C(NCCCCCCNC(=N)NC(=N)Nc1ccc(Cl)cc1)NC(=N)Nc1ccc(Cl)cc1 [chlorhexidine dressing, Hercon] | inactive: -1.15 | – | inactive: 0.0267
35 | N=C(NCCCCCCNC(=N)NC(=N)Nc1ccc(Cl)cc1)NC(=N)Nc1ccc(Cl)cc1 [chlorhexidine dressing] | – | inactive: -1.82 | –
36 | COc1ccccc1OCC(O)CO (stereo unspecified) [guaifenesin, Elan] | inactive: -1.3 | inactive: -1.23 | inactive: 2.72
37 | CSc1ccc(Cc2c(O)n[nH]c2C(F)(F)F)cc1 | inactive: -1.21 | inactive: -1.38 | inactive: 4.99
38 | CC(=O)NC(CS)C(=O)O (stereo unspecified) [nacystelyn] | – | inactive: -0.724 | –
39 | CC(=O)NC(CS)C(=O)O (stereo unspecified) | inactive: -0.862 | – | inactive: -1.49
40 | CCN(CC)CCn1cnc2c1c(=O)n(C)c(=O)n2C | inactive: -0.0299 | inactive: 2.14 | inactive: 2.39

Whole records as entered above. Order of values: TEAD-luciferase reporter activity (compound concentration: 200 nM)	TEAD-luciferase reporter activity (compound concentration: 2 uM)	TEAD-luciferase reporter activity (compound concentration: 10 uM)
O=C(OCCN1CCCCCC1)C(c1ccsc1)C1CCCCC1 (stereo unspecified) [cetiedil] is listed as inactive: -0.372	inactive: 1.68	inactive: 2.64
CCN(CC)CCn1cnc2c1c(=O)n(C)c(=O)n2C is listed as inactive: -0.0299	inactive: 2.14	inactive: 2.39
CCN(CC)CCOC(=O)C1(c2ccccc2)CCCC1 [Caramifenio] is listed as inactive: -1.3	–	inactive: 0.0573
CC(C)C[C@H]1CC[C@H](C(=O)COS(=O)(=O)c2ccccc2)CC1 is listed as inactive: -1.77	inactive: 0.297	inactive: 0.443

(continued)

Row | SMILES | TEAD-luciferase reporter activity (compound concentration: 200 nM) | TEAD-luciferase reporter activity (compound concentration: 2 uM) | TEAD-luciferase reporter activity (compound concentration: 10 uM)
41 | Cc1nnnn1/N=C/c1ccc(O)c(C(c2ccc(O)cc2)c2cc(/C=N/n3nnnc3C)ccc2O)c1 | inactive: 0.148 | inactive: 0.803 | active: 8.34
42 | CCn1cc(C(=O)O)c(=O)c2cc3occc3nc21 | inactive: -0.0548 | inactive: 0.0778 | inactive: -1.36
43 | CCCCCCCCCCCCCCCCNc1ccc(C(=O)O)cc1 [cetaben sodium] | inactive: 0.238 | inactive: 0.213 | inactive: 0.0274
44 | CN1CCC(C(=O)N2CCC(n3c(=O)[nH]c4ccccc43)CC2)CC1 | inactive: -1.92 | – | inactive: 2.87
45 | CNC(=O)c1c(-c2ccc(F)cc2)oc2cc(N(c3cc(Cl)c4c(c3)COB4O)S(C)(=O)=O)c(C3CC3)cc12 | inactive: -0.803 | inactive: -0.774 | inactive: -1.05
46 | CSCC[C@H](N)C(=O)N[C@@H](CCC(=O)O)C(=O)N[C@@H](Cc1cnc[nH]1)C(=O)N[C@@H](Cc1ccccc1)C(=O)N1CCC[C@H]1C(=O)NCC(=O)N1CCC[C@H]1C(=O)O | inactive: -1.78 | inactive: -0.637 | inactive: -1.12
47 | COc1cccc(S(=O)(=O)N2CC(N(C)c3ccccc3C)C2)c1 | inactive: 1.08 | – | inactive: 0.091
48 | O=C(O)c1cc2cc(O)ccc2n1Cc1ccc(Cl)c(C(F)(F)F)c1 | inactive: 0.425 | inactive: -1.23 | inactive: 0.466
49 | Cc1cccc(C)c1N(CCCc1cccnc1)C(=O)[C@@H](C)N [Milacainide] | inactive: -0.727 | inactive: -0.397 | inactive: -0.29
50 | CCC(C)(CN(C)C)OC(=O)c1ccccc1 (stereo unspecified) | inactive: 1.04 | inactive: 1.69 | inactive: 1.44
51 | CCCCc1oc2ccccc2c1C(=O)c1cc(I)c(OCCN(CC)CC)c(I)c1 | inactive: -1.45 | – | inactive: 0.0705
52 | CCCCc1oc2ccccc2c1C(=O)c1cc(I)c(OCCN(CC)CC)c(I)c1 [amiodarone] | – | inactive: 0.585 | –
53 | COC(=O)N1CCC(CC#Cc2nc(N)c3ncn([C@@H]4O[C@H](C(=O)NC5CC5)[C@@H](O)[C@H]4O)c3n2)CC1 | inactive: 3.26 | inactive: -0.552 | inactive: -0.178
54 | C=C1C(O)C(CO)OC1n1ccc(N)nc1=O (stereo unspecified) | inactive: -0.196 | inactive: -0.434 | inactive: 0.334
55 | CN(C)CCOC(c1ccccc1)c1ccc(Br)cc1 (stereo unspecified) | inactive: 0.956 | inactive: 1.18 | inactive: 0.167
56 | C[C@H](N[C@@H](CCc1ccccc1)C(=O)O)C(=O)N1Cc2ccccc2C[C@H]1C(=O)O [quinaprilat] | inactive: -1.25 | inactive: -0.808 | inactive: 2.08
57 | Nc1c2c(nc3ccccc13)CCCC2 | inactive: 4.34 | – | inactive: 0.0048
58 | Nc1c2c(nc3ccccc13)CCCC2 [tacrine, OROS] | – | inactive: -2.39 | –
59 | Cc1cc(S(C)(=O)=O)c(S(C)(=O)=O)cc1C(=O)NC(=N)N | inactive: -0.697 | inactive: -0.806 | inactive: -0.733

Shown in CSV form: part of the list above
Row,SMILES,TEAD-luciferase reporter activity (compound concentration: 200 nM),TEAD-luciferase reporter activity (compound concentration: 2 uM),TEAD-luciferase reporter activity (compound concentration: 10 uM)
4,C[N+]1(CCC(O)(c2ccccc2)c2cccs2)CCOCC1 (stereo unspecified) [tiemonium metilsulfate],inactive: -1.18,inactive: 0.959,inactive: 0.711
20,OC(CN1CCC(Cc2ccc(F)cc2)CC1)c1ccc(Cl)cc1 (stereo unspecified) [Eliprodil],inactive: -1.35,inactive: -1.66,inactive: 2.9
